Source: patent US20260184748A1 (The Trustees of the University of Pennsylvania, priority 2022, published 2026)
For some assays here: Some peptides are written in HELM: one residue between dots, names in brackets for other building blocks, links after the first $. Where no end group is shown, it is not given here.

Assays:
peptide synthesis [1] = conditions: whole synthesis, MALDI-ToF MS and RP-HPLC (Zorbax analytical C18 column), acetate salt (ODN and TDN, rather than TFA salt)
peptide synthesis [2] = conditions: whole synthesis, acetate salt (ODN and TDN, rather than TFA salt)

Row | Substance | final HPLC purity (peptide synthesis [1]) [% pure] | final HPLC purity (peptide synthesis [2]) [% pure]
1 | PEPTIDE1{R.P.G.L.[dL].D.L.K.[am]}$$$$V2.0 | 96 | –
2 | PEPTIDE1{Q.A.T.V.G.D.V.N.T.D.R.P.G.L.L.D.L.K.[am]}$$$$V2.0 | 100 | –
3 | Arg-Pro-Gly-Leu-Leu | – | 95
4 | PEPTIDE1{D.V.N.T.D.R.P.G.L.L.D.L.K.[am]}$$$$V2.0 | 100 | –
5 | RPGLLDLK | – | 96.4
